# Laboratory results: paper PMC3600519, “Acute toxicity of vipoxin and its components: is the acidic component an “inhibitor” of PLA2 toxicity?” (Interdisciplinary Toxicology, 2012)
# No constants are given. Whether binding was seen depends on the method and setting. Some binding calls cover weakened binding; strength is not graded here.
# T1: vipoxin basic and toxic phospholipase A2 subunit (Vipera ammodytes meridionalis) (UniProt P14420)
# T1 sequence: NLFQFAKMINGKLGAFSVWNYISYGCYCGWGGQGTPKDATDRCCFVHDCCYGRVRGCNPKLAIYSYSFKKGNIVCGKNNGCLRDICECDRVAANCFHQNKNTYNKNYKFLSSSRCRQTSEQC
# B1: vipoxin's acidic component (natural protein)
# chain: NLFQFGDMILQKTGKEAVHSYAIYGCYCGWGGQGRAQDATDRCCFAQDCCYGRVNDCNPKTATYTYSFENGDIVCGDNDLCLRAVCECDRAAAICLGENVNTYDKNYEYYSISHCTEESEQC
# Target: T1, vipoxin basic and toxic phospholipase A2 subunit (Vipera ammodytes meridionalis)
# Experiment: co-purification by ion-exchange chromatography
binder,measurement,value
B1,binding,binds
